Test results reported in patent publication US20090300780A1 (AbbVie / Abbott, published 2009).
No constants are given. Whether binding was seen depends on the method and setting. Some binding calls cover weakened binding; strength is not graded here.

Sequences of proteins named here, by UniProt entry; tags and fusion partners are left off. Residues count along the entry.
UniProt P04629, residues 33-423: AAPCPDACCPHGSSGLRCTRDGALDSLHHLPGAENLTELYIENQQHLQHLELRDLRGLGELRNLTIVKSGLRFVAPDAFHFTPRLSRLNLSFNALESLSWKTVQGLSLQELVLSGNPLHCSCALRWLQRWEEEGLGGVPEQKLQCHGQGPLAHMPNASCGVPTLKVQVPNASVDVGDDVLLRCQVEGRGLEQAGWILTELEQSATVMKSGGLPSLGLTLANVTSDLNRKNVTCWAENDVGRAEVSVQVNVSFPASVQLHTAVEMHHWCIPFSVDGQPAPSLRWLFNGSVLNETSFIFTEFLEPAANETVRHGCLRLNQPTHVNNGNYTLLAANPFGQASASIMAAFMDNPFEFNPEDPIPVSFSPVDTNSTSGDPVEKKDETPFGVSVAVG

Biological target: purified recombinant immunoadhesin TrkA Camel (UniProt P04629)
Assay: ELISA, TrkA Camel immunoadhesin coated at 10 ug/ml, COS supernatants with IgG1, detection by anti-human Cgamma, OD450

B1: MNAC13 humanized antibody (Hum MNAC13), IgG1 form (antibody, V domains shown)
VH: EVQLLESGGGLVQPGGSLRLSCAASGFTFSTYTMSWARQAPGKGLEWVAYISKGGGSTYYPDTVKGRFTISRDNSKNTLYLQMNSLRAEDSAVYYCARGAMFGNDFFFPMDRWGQGTLVTVSS
VL: DIVLTQSPSSLSASVGDRVTITCSASSSVSYMHWYQQKPGQAPKLLIYTTSNLASGVPSRFSGSGSGTDYTLTISSLQPEDVATYYCHQWSSYPWTFGGGTKVEIK
binding: binds
